In article PMC9663503, “Independently evolved viral effectors convergently suppress DELLA protein SLR1-mediated broad-spectrum antiviral immunity in rice” (Nature Communications, 2022):
Results are given in words; binding and its absence hold for the method and conditions named. In cells and extracts the contact can be indirect. Some binding calls cover weakened binding; strength is not graded here. Tags and fused reporters may be left off the sequences shown.

Protein sequences, listed by entry. Tags and fused reporters are not part of them.
UniProt Q336P5: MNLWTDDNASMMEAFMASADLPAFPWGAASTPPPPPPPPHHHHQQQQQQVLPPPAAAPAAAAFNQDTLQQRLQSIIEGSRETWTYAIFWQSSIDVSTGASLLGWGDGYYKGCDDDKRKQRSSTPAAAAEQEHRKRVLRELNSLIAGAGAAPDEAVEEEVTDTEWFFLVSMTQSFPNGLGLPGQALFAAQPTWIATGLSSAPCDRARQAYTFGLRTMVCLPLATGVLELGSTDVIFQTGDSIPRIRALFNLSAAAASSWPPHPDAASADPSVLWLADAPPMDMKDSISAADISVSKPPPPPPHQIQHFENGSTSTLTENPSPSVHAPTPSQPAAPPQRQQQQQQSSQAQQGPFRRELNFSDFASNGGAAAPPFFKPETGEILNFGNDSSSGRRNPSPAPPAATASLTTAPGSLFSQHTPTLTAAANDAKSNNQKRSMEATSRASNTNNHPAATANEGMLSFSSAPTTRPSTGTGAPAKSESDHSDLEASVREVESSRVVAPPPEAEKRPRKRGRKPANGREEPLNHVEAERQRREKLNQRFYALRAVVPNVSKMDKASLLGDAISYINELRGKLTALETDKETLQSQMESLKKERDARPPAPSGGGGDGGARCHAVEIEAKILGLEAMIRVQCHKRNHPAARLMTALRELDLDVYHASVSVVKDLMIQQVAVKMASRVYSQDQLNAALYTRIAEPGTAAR

T1: SLR1 (expressed in N. benthamiana; tag not stated) (rice (Oryza sativa)) (UniProt Q7G7J6)
T1 sequence: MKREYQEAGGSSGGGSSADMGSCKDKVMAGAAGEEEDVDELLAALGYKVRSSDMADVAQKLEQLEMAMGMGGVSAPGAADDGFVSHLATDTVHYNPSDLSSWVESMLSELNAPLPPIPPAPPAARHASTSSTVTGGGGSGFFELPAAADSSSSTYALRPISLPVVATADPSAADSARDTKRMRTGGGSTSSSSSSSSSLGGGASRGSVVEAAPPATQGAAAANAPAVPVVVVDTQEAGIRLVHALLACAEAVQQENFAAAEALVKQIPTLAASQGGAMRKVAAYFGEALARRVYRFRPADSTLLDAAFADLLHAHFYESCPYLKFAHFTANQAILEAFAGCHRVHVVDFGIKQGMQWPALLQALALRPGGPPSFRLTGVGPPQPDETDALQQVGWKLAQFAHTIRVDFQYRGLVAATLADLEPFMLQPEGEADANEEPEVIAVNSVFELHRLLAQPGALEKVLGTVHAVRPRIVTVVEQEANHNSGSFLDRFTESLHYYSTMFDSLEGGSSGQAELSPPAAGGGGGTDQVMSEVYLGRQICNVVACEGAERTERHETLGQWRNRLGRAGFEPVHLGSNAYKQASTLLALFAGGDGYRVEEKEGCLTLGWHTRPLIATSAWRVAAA

T2: OsGID1-flag (rice (Oryza sativa)) (UniProt Q6L545)
T2 sequence: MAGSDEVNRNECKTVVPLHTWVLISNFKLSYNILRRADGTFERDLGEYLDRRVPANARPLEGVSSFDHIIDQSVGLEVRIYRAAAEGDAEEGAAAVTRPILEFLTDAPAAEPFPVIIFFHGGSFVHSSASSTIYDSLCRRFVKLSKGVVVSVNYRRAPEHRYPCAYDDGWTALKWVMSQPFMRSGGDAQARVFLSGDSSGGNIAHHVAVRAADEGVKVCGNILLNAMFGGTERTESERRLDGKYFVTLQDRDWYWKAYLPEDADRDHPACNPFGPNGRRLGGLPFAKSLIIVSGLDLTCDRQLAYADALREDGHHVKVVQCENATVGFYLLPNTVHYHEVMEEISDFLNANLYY

T3: SLR1-cYFP (rice (Oryza sativa)) (UniProt Q7G7J6)
T3 sequence: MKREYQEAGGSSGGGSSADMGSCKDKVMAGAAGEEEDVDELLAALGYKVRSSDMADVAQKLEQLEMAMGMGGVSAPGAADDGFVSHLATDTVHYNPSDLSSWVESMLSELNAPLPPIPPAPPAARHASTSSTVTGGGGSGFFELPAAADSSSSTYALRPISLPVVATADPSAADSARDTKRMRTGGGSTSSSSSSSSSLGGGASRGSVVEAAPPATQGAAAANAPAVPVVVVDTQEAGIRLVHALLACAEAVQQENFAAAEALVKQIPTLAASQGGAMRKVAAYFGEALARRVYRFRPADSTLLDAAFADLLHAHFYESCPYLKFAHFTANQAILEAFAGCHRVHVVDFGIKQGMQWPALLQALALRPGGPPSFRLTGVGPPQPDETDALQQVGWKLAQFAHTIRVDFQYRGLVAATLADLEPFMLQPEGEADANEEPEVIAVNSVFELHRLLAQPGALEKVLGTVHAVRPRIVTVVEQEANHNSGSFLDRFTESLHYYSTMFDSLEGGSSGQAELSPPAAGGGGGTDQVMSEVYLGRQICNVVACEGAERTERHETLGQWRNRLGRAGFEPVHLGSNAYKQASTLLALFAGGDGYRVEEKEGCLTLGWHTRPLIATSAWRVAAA


What was measured:
[1] = target: T1, SLR1 (expressed in N. benthamiana; tag not stated) (rice (Oryza sativa)); assay: co-IP; N. benthamiana leaves co-expressing the tagged proteins, harvested 48 hpi; IP buffer 25 mM Tris-HCl pH 7.4, 150 mM NaCl, 1% NP-40; Flag-trap beads 2 h at 4 °C; immunoblot
[2] = target: T2, OsGID1-flag (rice (Oryza sativa)); assay: co-IP; competitive co-IP in N. benthamiana leaves; a third protein (SP8, P2 or SLR1) co-infiltrated at OD600 0.5 or 1.0; 50 µM MG132 at 24 hpi (Fig. 3e, f, 6a-d); Flag-tag or HA-tag paramagnetic beads
[3] = target: T3, SLR1-cYFP (rice (Oryza sativa)); assay: split reporter; competitive BiFC in N. benthamiana leaves; components mixed in equal volumes, 50 µM MG132; with or without a third protein

Molecule	binding [2]	also measured
OsMYC2 (co-IP construct; tag not stated) (from UniProt Q336P5 1-699)		binding [1]: binds
SLR1-GFP (protein, UniProt Q7G7J6 1-625) MKREYQEAGGSSGGGSSADMGSCKDKVMAGAAGEEEDVDELLAALGYKVRSSDMADVAQKLEQLEMAMGMGGVSAPGAADDGFVSHLATDTVHYNPSDLSSWVESMLSELNAPLPPIPPAPPAARHASTSSTVTGGGGSGFFELPAAADSSSSTYALRPISLPVVATADPSAADSARDTKRMRTGGGSTSSSSSSSSSLGGGASRGSVVEAAPPATQGAAAANAPAVPVVVVDTQEAGIRLVHALLACAEAVQQENFAAAEALVKQIPTLAASQGGAMRKVAAYFGEALARRVYRFRPADSTLLDAAFADLLHAHFYESCPYLKFAHFTANQAILEAFAGCHRVHVVDFGIKQGMQWPALLQALALRPGGPPSFRLTGVGPPQPDETDALQQVGWKLAQFAHTIRVDFQYRGLVAATLADLEPFMLQPEGEADANEEPEVIAVNSVFELHRLLAQPGALEKVLGTVHAVRPRIVTVVEQEANHNSGSFLDRFTESLHYYSTMFDSLEGGSSGQAELSPPAAGGGGGTDQVMSEVYLGRQICNVVACEGAERTERHETLGQWRNRLGRAGFEPVHLGSNAYKQASTLLALFAGGDGYRVEEKEGCLTLGWHTRPLIATSAWRVAAA	binds	
SLR1-myc (protein, UniProt Q7G7J6 1-625) MKREYQEAGGSSGGGSSADMGSCKDKVMAGAAGEEEDVDELLAALGYKVRSSDMADVAQKLEQLEMAMGMGGVSAPGAADDGFVSHLATDTVHYNPSDLSSWVESMLSELNAPLPPIPPAPPAARHASTSSTVTGGGGSGFFELPAAADSSSSTYALRPISLPVVATADPSAADSARDTKRMRTGGGSTSSSSSSSSSLGGGASRGSVVEAAPPATQGAAAANAPAVPVVVVDTQEAGIRLVHALLACAEAVQQENFAAAEALVKQIPTLAASQGGAMRKVAAYFGEALARRVYRFRPADSTLLDAAFADLLHAHFYESCPYLKFAHFTANQAILEAFAGCHRVHVVDFGIKQGMQWPALLQALALRPGGPPSFRLTGVGPPQPDETDALQQVGWKLAQFAHTIRVDFQYRGLVAATLADLEPFMLQPEGEADANEEPEVIAVNSVFELHRLLAQPGALEKVLGTVHAVRPRIVTVVEQEANHNSGSFLDRFTESLHYYSTMFDSLEGGSSGQAELSPPAAGGGGGTDQVMSEVYLGRQICNVVACEGAERTERHETLGQWRNRLGRAGFEPVHLGSNAYKQASTLLALFAGGDGYRVEEKEGCLTLGWHTRPLIATSAWRVAAA	binds	
MBP-His-OsGID1 (receptor, OsGID1, the rice gibberellin receptor GIBBERELLIN … DWARF1; also called PET32a-MBP-His-OsGID1; source: E. coli Rosetta (DE3), purified (Ni-NTA His-trap column)) MAGSDEVNRNECKTVVPLHTWVLISNFKLSYNILRRADGTFERDLGEYLDRRVPANARPLEGVSSFDHIIDQSVGLEVRIYRAAAEGDAEEGAAAVTRPILEFLTDAPAAEPFPVIIFFHGGSFVHSSASSTIYDSLCRRFVKLSKGVVVSVNYRRAPEHRYPCAYDDGWTALKWVMSQPFMRSGGDAQARVFLSGDSSGGNIAHHVAVRAADEGVKVCGNILLNAMFGGTERTESERRLDGKYFVTLQDRDWYWKAYLPEDADRDHPACNPFGPNGRRLGGLPFAKSLIIVSGLDLTCDRQLAYADALREDGHHVKVVQCENATVGFYLLPNTVHYHEVMEEISDFLNANLYY		binding [3]: binds
